Values from PubChem BioAssay AID1224830 (NIAID, 2016)

Screen: 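Host factors that control LPS-induced TNF expression in human macrophages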 (primary screen)
System: human THP-1 monocytic leukaemia cells, TNF dual-luciferase reporter clone, PMA-differentiated to macrophage-like cells
Reagents: siRNA pool against human genes, 50 nM
Time to read-out: LPS for 4 h, given about 3 days after siRNA transfection
Challenge: bacterial LPS (TLR4 ligand), 10 ng/ml
Detection: 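Ratio of firefly to renilla light, scaled to the plate median and expressed as a robust z-score per replicate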
Scale: TNF reporter robust z-score: higher = stronger TNF reporter response to LPS
Call rule: 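a well is active when its z-score exceeds 2.8 or falls below -1.5; control wells carry no call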
This is an unselected part of about 18,000 deposited reagents. About 2,900 of all reagents (16%) count as active. 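Calls are made per well; low scores hint the gene aids the LPS response, high scores that it dampens it.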 Entries without a mark were called inactive. Repeated entries: four replicate wells of each siRNA pool.

gene symbol,TNF reporter robust z-score
RET,-0.16
RET,0.79
RET,-1.33
RET,-1.21
NUDT8,0.06
NUDT8,0.32
NUDT8,0.61
NUDT8,0.13
LIPT1,-1.28
LIPT1,0.07
LIPT1,-0.71
LIPT1,-0.07
NAGA,1.95
NAGA,3.21 (active)
NAGA,0.23
NAGA,2.48
DPY30,-1.32
DPY30,-0.14
DPY30,-0.28
DPY30,-0.45
RTL4,0.24
RTL4,0.56
RTL4,0.25
RTL4,0.43
SLC6A13,-0.72
SLC6A13,-0.52
SLC6A13,-0.08
SLC6A13,0.05
TREML4,0.18
TREML4,-0.69
TREML4,-0.86
TREML4,-1.01
IRAK3,-0.7
IRAK3,-0.24
IRAK3,-1.05
IRAK3,0.16
MRPL37,0.57
MRPL37,0.76
MRPL37,2.13
MRPL37,1.25
GJD4,0.09
GJD4,1.32
GJD4,-0.24
GJD4,0.08
FKBP3,0.25
FKBP3,0.52
FKBP3,0.04
FKBP3,0.18
AIM2,1.32
AIM2,0.47
AIM2,1
AIM2,1.33
ARRB2,-1.61 (active)
ARRB2,0.22
ARRB2,-0.23
ARRB2,-0.53
GLA,-1.54 (active)
GLA,-1.15
GLA,-1.14
GLA,-0.76
CIRBP,-0.25
CIRBP,-0.13
CIRBP,-0.29
CIRBP,0
ERMN,1.79
ERMN,2.15
ERMN,1.43
ERMN,-0.44
SLC22A9,2.05
SLC22A9,1.46
SLC22A9,0.17
SLC22A9,3.52 (active)
ZNF668,16.2 (active)
ZNF668,3.93 (active)
ZNF668,-0.34
ZNF668,1.22
NXNL1,3.62 (active)
NXNL1,2.78
NXNL1,0.04
NXNL1,2.47
CLDN4,-0.36
CLDN4,0.97
CLDN4,-0.63
CLDN4,-0.45
TEX264,0.12
TEX264,0.65
TEX264,1.91
TEX264,0.62
ZSCAN4,-0.98
ZSCAN4,-1.44
ZSCAN4,-1.21
ZSCAN4,-1.09
CDC6,-0.3
CDC6,0.69
CDC6,-0.09
CDC6,-0.2
ZNF567,-1.31
ZNF567,-1.87 (active)
ZNF567,-1.43
ZNF567,-1.4
AGBL5,0.99
AGBL5,0.37
AGBL5,-1.03
AGBL5,0.28
HSP90B1,-1.76 (active)
HSP90B1,-1.74 (active)
HSP90B1,-1.88 (active)
TMPRSS11D,-1.71 (active)
TMPRSS11D,-1.26
TMPRSS11D,-1.74 (active)
TMPRSS11D,-0.71
